Measurements taken from article PMC5253704.

The chains behind the UniProt entries cited, without tags or fusion partners. Where a name states a change or a piece, a line headed by the entry shows the natural chain unless it says otherwise.
UniProt Q61245: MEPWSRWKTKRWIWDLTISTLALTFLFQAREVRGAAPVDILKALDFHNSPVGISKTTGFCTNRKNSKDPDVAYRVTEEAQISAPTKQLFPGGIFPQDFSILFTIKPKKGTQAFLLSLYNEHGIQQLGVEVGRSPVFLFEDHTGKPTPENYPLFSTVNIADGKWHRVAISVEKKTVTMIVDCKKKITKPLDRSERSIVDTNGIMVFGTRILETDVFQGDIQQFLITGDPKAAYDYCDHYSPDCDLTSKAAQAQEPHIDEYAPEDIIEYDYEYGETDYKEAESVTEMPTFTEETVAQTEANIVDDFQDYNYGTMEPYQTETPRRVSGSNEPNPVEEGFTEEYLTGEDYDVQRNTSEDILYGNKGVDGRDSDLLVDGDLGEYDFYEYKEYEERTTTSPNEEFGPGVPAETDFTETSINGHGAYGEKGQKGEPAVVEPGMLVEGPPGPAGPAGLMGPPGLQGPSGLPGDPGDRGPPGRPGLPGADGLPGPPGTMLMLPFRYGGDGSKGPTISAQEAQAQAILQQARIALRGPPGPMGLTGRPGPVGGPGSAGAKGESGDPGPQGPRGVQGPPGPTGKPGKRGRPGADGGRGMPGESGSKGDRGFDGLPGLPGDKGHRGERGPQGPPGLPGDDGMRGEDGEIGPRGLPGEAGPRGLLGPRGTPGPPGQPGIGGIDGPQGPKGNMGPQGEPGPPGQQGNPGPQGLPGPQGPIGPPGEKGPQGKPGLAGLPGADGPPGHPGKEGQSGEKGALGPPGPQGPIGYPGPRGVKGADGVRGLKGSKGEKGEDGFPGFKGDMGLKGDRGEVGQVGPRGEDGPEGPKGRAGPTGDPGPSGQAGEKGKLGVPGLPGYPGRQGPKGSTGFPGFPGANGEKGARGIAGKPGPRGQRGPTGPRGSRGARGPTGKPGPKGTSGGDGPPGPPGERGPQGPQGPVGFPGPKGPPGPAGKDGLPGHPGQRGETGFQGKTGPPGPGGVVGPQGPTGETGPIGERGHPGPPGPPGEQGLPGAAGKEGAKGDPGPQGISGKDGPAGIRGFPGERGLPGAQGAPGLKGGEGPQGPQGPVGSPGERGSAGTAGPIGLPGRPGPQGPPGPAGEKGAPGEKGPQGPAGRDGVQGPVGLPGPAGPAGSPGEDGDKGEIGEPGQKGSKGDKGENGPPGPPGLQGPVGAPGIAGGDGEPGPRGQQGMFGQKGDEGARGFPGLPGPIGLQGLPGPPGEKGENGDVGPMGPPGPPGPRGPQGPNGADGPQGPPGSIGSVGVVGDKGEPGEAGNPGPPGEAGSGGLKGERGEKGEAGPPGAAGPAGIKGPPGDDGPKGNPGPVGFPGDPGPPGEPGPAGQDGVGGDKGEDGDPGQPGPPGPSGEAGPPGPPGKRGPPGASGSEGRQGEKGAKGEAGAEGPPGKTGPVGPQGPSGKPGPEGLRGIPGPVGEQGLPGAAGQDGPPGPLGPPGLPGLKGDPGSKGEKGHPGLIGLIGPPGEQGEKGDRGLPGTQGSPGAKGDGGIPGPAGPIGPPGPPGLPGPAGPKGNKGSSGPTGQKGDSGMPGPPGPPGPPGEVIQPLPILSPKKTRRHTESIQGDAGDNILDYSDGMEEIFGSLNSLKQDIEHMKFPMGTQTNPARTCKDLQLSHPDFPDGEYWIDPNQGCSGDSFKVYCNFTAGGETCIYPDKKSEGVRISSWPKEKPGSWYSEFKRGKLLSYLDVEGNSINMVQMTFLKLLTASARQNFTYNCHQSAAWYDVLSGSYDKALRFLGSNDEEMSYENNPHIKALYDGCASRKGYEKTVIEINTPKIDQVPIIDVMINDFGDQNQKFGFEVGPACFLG

What was measured:
[1] = target: T1, glypican-1, endogenous in WT/PyMT mouse mammary tumours (mouse (endogenous in MMTV-PyMT tumours)) (UniProt Q9QZF2); assay: co-IP; immunoprecipitation of endogenous proteins from WT/PyMT (and KO/PyMT) tumour extracts in RIPA buffer, 0.3 mg protein per ml, 900 μl; protein G or A agarose, overnight 4 °C; immunoblot
T1 sequence: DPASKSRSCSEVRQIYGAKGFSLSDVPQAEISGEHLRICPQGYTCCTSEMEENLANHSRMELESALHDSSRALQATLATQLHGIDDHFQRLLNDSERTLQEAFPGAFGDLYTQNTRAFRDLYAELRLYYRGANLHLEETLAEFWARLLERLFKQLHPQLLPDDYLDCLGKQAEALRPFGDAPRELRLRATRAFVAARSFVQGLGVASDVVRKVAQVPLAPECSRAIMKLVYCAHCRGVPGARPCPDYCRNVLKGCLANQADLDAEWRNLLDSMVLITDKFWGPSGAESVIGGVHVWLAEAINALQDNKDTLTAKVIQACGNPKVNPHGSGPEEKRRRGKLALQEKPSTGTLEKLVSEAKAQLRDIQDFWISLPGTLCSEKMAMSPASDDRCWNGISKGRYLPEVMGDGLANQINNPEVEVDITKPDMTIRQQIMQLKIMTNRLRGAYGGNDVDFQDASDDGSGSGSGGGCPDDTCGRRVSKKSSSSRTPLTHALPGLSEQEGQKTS

[2] = target: α3(V) collagen chain, endogenous in WT/PyMT mouse mammary tumours (mouse (endogenous in MMTV-PyMT tumours)); assay: as above

Row | Molecule | binding [1] | binding [2]
1 | α1(XI) collagen chain, endogenous in WT/PyMT mouse mammary tumours (from UniProt Q61245) | no binding | 
2 | α3(V) collagen chain, endogenous in WT/PyMT mouse mammary tumours | binds | 
3 | glypican-1, endogenous in WT/PyMT mouse mammary tumours (protein, UniProt Q9QZF2 24-529) DPASKSRSCSEVRQIYGAKGFSLSDVPQAEISGEHLRICPQGYTCCTSEMEENLANHSRMELESALHDSSRALQATLATQLHGIDDHFQRLLNDSERTLQEAFPGAFGDLYTQNTRAFRDLYAELRLYYRGANLHLEETLAEFWARLLERLFKQLHPQLLPDDYLDCLGKQAEALRPFGDAPRELRLRATRAFVAARSFVQGLGVASDVVRKVAQVPLAPECSRAIMKLVYCAHCRGVPGARPCPDYCRNVLKGCLANQADLDAEWRNLLDSMVLITDKFWGPSGAESVIGGVHVWLAEAINALQDNKDTLTAKVIQACGNPKVNPHGSGPEEKRRRGKLALQEKPSTGTLEKLVSEAKAQLRDIQDFWISLPGTLCSEKMAMSPASDDRCWNGISKGRYLPEVMGDGLANQINNPEVEVDITKPDMTIRQQIMQLKIMTNRLRGAYGGNDVDFQDASDDGSGSGSGGGCPDDTCGRRVSKKSSSSRTPLTHALPGLSEQEGQKTS |  | binds

Results are given in words; binding and its absence hold for the method and conditions named. In cells and extracts the contact can be indirect. Binding calls can cover weak binding; strength is not graded here.
